Experimental findings from publication PMC3549491, “Structural Basis of the Intracellular Sorting of the SNARE VAMP7 by the AP3 Adaptor Complex” (Developmental Cell, 2012) are described below.

No constants are given. Whether binding was seen depends on the method and setting. Binding seen in cells or lysates may run through a third protein.

This experiment deals with T1, wild-type δ-adaptin expressed in mocha fibroblasts (in AP3) (UniProt O14617).
T1 sequence: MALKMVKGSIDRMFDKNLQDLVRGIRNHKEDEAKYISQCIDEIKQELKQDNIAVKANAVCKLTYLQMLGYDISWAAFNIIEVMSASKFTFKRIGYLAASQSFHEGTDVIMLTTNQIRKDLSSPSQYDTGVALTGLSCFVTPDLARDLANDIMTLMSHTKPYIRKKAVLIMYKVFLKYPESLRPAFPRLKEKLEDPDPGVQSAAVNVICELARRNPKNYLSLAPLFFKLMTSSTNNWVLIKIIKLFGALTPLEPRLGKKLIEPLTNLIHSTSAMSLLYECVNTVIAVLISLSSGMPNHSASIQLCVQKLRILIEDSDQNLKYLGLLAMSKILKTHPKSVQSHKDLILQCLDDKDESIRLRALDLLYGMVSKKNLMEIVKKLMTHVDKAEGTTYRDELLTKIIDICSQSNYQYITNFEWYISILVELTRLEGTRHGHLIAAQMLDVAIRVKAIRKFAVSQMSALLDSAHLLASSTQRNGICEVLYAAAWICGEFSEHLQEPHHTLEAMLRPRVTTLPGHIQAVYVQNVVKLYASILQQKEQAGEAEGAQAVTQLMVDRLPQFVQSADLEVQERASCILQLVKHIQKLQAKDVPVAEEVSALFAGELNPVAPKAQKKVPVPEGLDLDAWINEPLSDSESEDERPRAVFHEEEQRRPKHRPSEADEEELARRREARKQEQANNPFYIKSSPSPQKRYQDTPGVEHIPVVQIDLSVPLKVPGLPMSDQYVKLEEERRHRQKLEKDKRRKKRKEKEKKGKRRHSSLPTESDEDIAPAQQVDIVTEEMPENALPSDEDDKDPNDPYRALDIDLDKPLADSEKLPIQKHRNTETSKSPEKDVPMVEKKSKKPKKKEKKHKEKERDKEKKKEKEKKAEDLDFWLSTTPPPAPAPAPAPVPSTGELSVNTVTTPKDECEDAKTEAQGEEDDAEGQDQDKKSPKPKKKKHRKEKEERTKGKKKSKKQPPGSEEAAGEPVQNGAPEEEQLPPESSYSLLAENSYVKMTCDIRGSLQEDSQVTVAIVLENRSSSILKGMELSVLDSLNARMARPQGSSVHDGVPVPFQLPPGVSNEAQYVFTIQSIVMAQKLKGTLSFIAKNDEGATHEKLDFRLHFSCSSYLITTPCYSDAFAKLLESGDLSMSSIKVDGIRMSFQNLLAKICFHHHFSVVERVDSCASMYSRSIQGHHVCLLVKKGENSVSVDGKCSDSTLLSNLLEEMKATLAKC
Put plainly: co-IP; native immunoprecipitation with antibodies to δ-adaptin from transduced mocha fibroblasts; immunoblotting; bands quantified with ImageJ. On the technique in general: In western blotting, separated proteins are transferred to a membrane and probed.

B1: endogenous VAMP8 (protein, UniProt O70404 1-101)
chain: MEEASGSAGNDRVRNLQSEVEGVKNIMTQNVERILSRGENLDHLRNKTEDLEATSEHFKTTSQKVARKFWWKNVKMIVIICVIVLIIVILIILFATGTIPT
Take B1: the binding result is recorded as “no binding”.
